Test results taken from PMC11441496.
Results are given in words; binding and its absence hold for the method and conditions named. A result given as binding can be weak or reduced; the word gives no strength.

Target: K. pneumoniae TOP52 FimH S62A (Klebsiella pneumoniae)
Assay: in vitro donor strand exchange, product purified by cation exchange; FimCGdb and FimChisH mixed at a 3:1 molar ratio in 20 mM MES (pH 5.6) at 30 °C for 16 h; FimCGdbH purified on a cation (S) exchange column; FimH entered the reaction bound to FimChis; both purified

B1: E. coli UTI89 FimG S138C (protein, UniProt P08190 24-167)
chain: ADVTITVNGKVVAKPCTVSTTNATVDLGDLYSFSLMSAGAASAWHDVALELTNCPVGTSRVTASFSGAADSTGYYKNQGTAQNIQLELQDDSGNTLNTGATKTVQVDDSSQSAHFPLQVRALTVNGGATQGTIQAVICITYTYS
binding: binds
